Test system: 95 different cancer cell lines
Experiment: Proliferation assay on a panel of cancer cell lines
Type: cell-based
Conditions: read-out: IC50 proliferation, non-specific kinase inhibitors

Question: Which IC50 does the source give for `CN[C@@H]1C[C@H]2O[C@@](C)([C@@H]1OC)n1c3ccccc3c3c4c(c5c6ccccc6n2c5c31)C(=O)NC4` [staurosporine] here?
Answer: The IC50 was less than 100 nM.
